# Reference: publication PMC7360964, “Auto‐inhibition of Mif2/CENP‐C ensures centromere‐dependent kinetochore assembly in budding yeast” (The EMBO Journal, 2020)
# Amino acid sequences for entries named in this document (tags omitted). A change or cut given only in a name is not applied to a line headed by its entry. Chains listed by the source or under a name are the forms on record and can include a tag or linker. Residues count along the entry.
# FITC-Mif2^1-41 (P35201, residues 1-41): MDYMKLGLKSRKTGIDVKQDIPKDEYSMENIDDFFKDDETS
# GST-Mif2-N Arg11 to alanine (P35201, form named): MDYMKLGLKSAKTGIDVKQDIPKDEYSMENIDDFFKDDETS
# Mif2-ΔsigAT (Mif2-Δ284–367), C-terminal Flag (P35201, form named): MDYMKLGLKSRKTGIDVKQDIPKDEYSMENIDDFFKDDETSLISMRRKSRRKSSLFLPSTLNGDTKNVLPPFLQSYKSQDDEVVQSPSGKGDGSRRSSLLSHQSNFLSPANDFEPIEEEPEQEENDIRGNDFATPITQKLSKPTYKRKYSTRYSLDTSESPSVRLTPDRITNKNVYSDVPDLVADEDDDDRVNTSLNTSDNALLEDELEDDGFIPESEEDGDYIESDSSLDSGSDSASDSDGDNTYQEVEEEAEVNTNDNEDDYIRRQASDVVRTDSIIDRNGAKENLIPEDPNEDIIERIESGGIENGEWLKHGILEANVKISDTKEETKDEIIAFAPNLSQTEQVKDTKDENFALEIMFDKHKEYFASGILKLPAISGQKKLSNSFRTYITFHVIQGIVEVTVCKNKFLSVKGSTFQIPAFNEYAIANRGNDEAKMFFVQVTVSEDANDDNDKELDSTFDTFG
# GST-Ame1^1-30 (P38313, residues 1-30): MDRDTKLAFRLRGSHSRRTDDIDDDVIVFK
# GST-Ame1-N Arg10 to alanine (P38313, form named): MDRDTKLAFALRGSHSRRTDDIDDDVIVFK
# No constants are given. Whether binding was seen depends on the method and setting. Some binding calls cover weakened binding; strength is not graded here.
# B1: Mtw1-Nnf1 heterodimer (MN) (complex, UniProt P39731 1-289; P47149 1-201)
# chain 1: MSAPTMRSTSILTEHLGYPPISLVDDIINAVNEIMYKCTAAMEKYLLSKSKIGEEDYGEEIKSGVAKLESLLENSVDKNFDKLELYVLRNVLRIPEEYLDANVFRLENQKDLVIVDENELKKSEEKLREKVNDVELAFKKNEMLLKRVTKVKRLLFTIRGFKQKLNELLKCKDDVQLQKILESLKPIDDTMTLLTDSLRKLYVDSESTSSTEEVEALLQRLKTNGKQNNKDFRTRYIDIRTNNVLRKLGLLGDKEDEKQSAKPDARTQAGDIVSIDIEEPQLDLLDDVL
# chain 2: MVNSHGIRYIRLKQVFNRALDQSISKLQSWDKVSSCFPQYVNSKQGAINVANCQRQLTEFWTELCQREFKEIMEERNVEQKLNELDELILEAKERYTDRDQDEVNKGPAIDELSSKELVECHLYSQRMHAIHEIDERLAKVNEMNDQLAQELKDLETQVEVEKNEIGKMYDEYLGSHTDQPANVLLVQSLNDMVLELKENY
# What was measured:
# [1] = biological target: GST-Mif2-N^1-41 (S. cerevisiae) (UniProt P35201); assay: pull-down; competition: GST-Mif2 1-41 on GSH Sepharose (1 μM), MN (3 μM) with increasing concentrations of Ame1 1-20 peptide; 1 h at 4°C; pulldown buffer; Mtw1 bands quantified; both purified
# [2] = biological target: GST-Ame1^1-30 (S. cerevisiae) (UniProt P38313); assay: pull-down; GST fusions on BSA-preblocked GSH Sepharose as bait at 1 μM, MN as prey at 3 μM; 1 h at 4°C; 10 mM HEPES pH 7.5, 200 mM NaCl, 0.05% Triton, 2.5% glycerol, 1 mM TCEP; Coomassie-stained gel; both purified
# [3] = biological target: GST-Ame1-N Arg10 to alanine (S. cerevisiae) (UniProt P38313); assay: as above
# [4] = biological target: GST-Mif2-N Arg11 to alanine (S. cerevisiae) (UniProt P35201); assay: as above
# [5] = biological target: GST-Mif2-N^1-41 (S. cerevisiae) (UniProt P35201); assay: as above
# [6] = biological target: FITC-Mif2^1-41 (S. cerevisiae) (UniProt P35201); assay: fluorescence polarisation; competition: 0.1 μM FITC-Mif2 1-41, 0.4 μM MN, Ame1-N from 0 to 40 μM; 30 mM Hepes pH 7.5, 150 mM NaCl, 1 mM TCEP, 23°C; both purified
# [7] = biological target: Mif2-ΔsigAT (Mif2-Δ284–367), C-terminal Flag (S. cerevisiae) (UniProt P35201); assay: pull-down; Mif2-Flag variants from insect cell lysate immobilised on M2 Flag agarose, washed, as bait at 1 μM; MN as prey at 3 μM; 1 h at 4°C; pulldown buffer; eluted with Flag peptide; Coomassie and anti-His Western; both purified
# [8] = biological target: Mif2-ΔsigAT (Mif2-Δ284–367), C-terminal Flag (S. cerevisiae) (UniProt P35201); assay: SEC; analytical SEC, equimolar mix at 10 μM each, Superose 6 3.2/30, 4°C; 20 mM HEPES pH 7.5, 150 mM NaCl, 2.5% glycerol, 1 mM TCEP; fractions on Coomassie-stained SDS-PAGE; both purified
binder,measurement,setting,value
B1,binding,[1],binds
same,binding,[2],binds
same,binding,[3],no binding (tested: 3 μM)
same,binding,[4],no binding (tested: 3 μM)
same,binding,[5],binds
same,binding,[6],binds
same,binding,[7],binds
same,binding,[8],binds
